Reference: publication doi:10.1101/2021.07.30.454416
These are yes or no findings as the source states them, for the method shown. In cells and extracts the contact can be indirect. Some results given as binding are weak or reduced against the parent protein; the word gives no strength.

Amino acid sequences for entries named in this document (tags omitted).
UniProt P26527: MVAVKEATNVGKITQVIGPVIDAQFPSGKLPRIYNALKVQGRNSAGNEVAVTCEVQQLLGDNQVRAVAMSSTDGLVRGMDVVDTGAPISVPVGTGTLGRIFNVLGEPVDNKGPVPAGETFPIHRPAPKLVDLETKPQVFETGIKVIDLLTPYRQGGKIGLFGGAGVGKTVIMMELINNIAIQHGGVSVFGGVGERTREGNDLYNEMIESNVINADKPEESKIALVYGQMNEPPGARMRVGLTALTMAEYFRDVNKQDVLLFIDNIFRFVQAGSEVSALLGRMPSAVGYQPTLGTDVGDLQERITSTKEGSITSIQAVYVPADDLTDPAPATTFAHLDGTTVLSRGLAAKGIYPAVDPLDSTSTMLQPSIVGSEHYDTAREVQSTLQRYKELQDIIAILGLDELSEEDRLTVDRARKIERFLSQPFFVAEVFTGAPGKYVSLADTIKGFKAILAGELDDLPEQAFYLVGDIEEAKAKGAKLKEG

Biological target: AtpB-3xFLAG (Synechocystis sp. PCC 6803) (UniProt P26527)
Test: co-IP

AtpB (subunit beta of ATP synthase) (from UniProt P26527 1-483)
binding: binds
